# Experimental data: the supplement of paper PMC7858590
# Values joined by “and” are separate entries in the source; they are usually repeats but may differ in a detail not shown here. Equal entries are not always repeated. ± gives the standard deviation of the averaged measurements. In all, about 3,800 compounds were measured (“cell shape (eccentricity) Z-score vs DMSO control”: median about 1.1, lowest 2% from about -4.7 on). The list shows a part of the results.
# Tested on: human monocyte-derived macrophages (M0)
# Assay: cell shape (eccentricity) Z-score vs DMSO control; higher = more elongated, M2-like morphology
# Conditions: 20 µM; 24 h; macrophage state: M0 (M-CSF)
row,SMILES,cell shape (Z-score)
1,CCCC[C@@H](CC)COC(=O)c1ccccc1O,2.47
2,OCCNCCCOc1cccc(Cl)c1Cl,4.64
3,O=C1c2cc(O)cc(O)c2C(=O)c2c1cc(O)c(C(CO)CCO)c2O (configuration not stated),-1.07
4,C=CC(C)(C)[C@@]12CC(=O)C(=O)N3/C(=C/c4cnc[nH]4)C(=O)N[C@]31N(OC)c1ccccc12,-0.897
5,NC(=O)CCCCn1ccc(N=C(N)NCC(F)(F)F)n1,1.3
6,O=C1NC(Cc2c[nH]c3ccccc23)C(=O)N2CCCC12 (configuration not stated),-1.99
7,Oc1ccc(CCCCC(O)CCc2ccc(O)cc2)cc1 (configuration not stated),0.0909
8,O=C1CSC(=O)N1,-2.17
9,CS(=O)(=O)NC(=O)CCC/C=C\C[C@H]1C(=O)C[C@@H](O)[C@@H]1/C=C/[C@@H](O)COc1ccccc1,-0.00725
10,COc1c(O[C@@H]2O[C@H](C(=O)O)[C@@H](O)[C@H](O)[C@H]2O)cc2oc(-c3ccccc3)cc(=O)c2c1O,1.12
11,O=c1cc(-c2ccccc2)oc2ccccc12,7.09
12,CC1=CC(C/C(C)=C/COc2ccc3ccc(=O)oc3c2)OC1=O (configuration not stated),-0.801
13,Cc1ccc(NC(=O)c2cccc(N(C)C)c2)cc1NC(=O)c1ccc(O)cc1,2.27
14,COc1cc(C2OC(c3cc(OC)c(OC)c(OC)c3)C(C)C2C)cc(OC)c1OC (configuration not stated),2.14 ± 4.2
15,CCCSc1ccc2[nH]c(NC(=O)OC)nc2c1,-3.67
16,c1ccc(CN(CC2=NCCN2)c2ccccc2)cc1,1.59
17,CCc1ccc(CCOc2ccc(CC3SC(=O)NC3=O)cc2)nc1 (configuration not stated),-0.791
18,O=C(O)c1cc(Oc2ccc([N+](=O)[O-])cc2)cc(Oc2ccc([N+](=O)[O-])cc2)c1,1.81
19,O=[N+]([O-])c1cc2nc(O)c(O)nc2cc1[N+](=O)[O-],-1.93
20,COc1ccc2c(c1)c1c3n2CCN(C)C3=NCC1,-1.74
21,COc1cccc2c1C(=O)c1c(O)c3c(c(O)c1C2=O)C[C@@](O)(C(C)=O)C[C@@H]3O[C@H]1C[C@H](N)[C@H](O)[C@H](C)O1,13
22,Fc1cccc(C=NN=Cc2cccc(F)c2)c1,1.79
23,O=C(/C=C/c1ccccc1)c1ccc(O)cc1O,0.718
24,CN(C)c1ccc(O)c2c1C[C@H]1C[C@H]3[C@H](N(C)C)C(=O)C(C(N)=O)C(=O)[C@@]3(O)C(=O)C1C2=O (some centres not stated),-0.164
25,CC[C@@H]1C(=O)N(C)c2cnc(Nc3ccc(C(=O)NC4CCN(C)CC4)cc3OC)nc2N1C1CCCC1,5.51
26,COC(=O)C1=CO[C@@H](O[C@@H]2O[C@H](CO)[C@@H](O)[C@H](O)[C@H]2O)[C@H]2[C@@H]1C=CC21C=C(C(C)O)C(=O)O1 (some centres not stated),-0.0107

# Copied from the list.
# cell shape (Z-score), O=c1cc(-c2ccccc2)oc2ccccc12 reads 7.09
# cell shape (Z-score), COc1cccc2c1C(=O)c1c(O)c3c(c(O)c1C2=O)C[C@@](O)(C(C)=O)C[C@@H]3O[C@H]1C[C@H](N)[C@H](O)[C@H](C)O1 reads 13
# cell shape (Z-score), OCCNCCCOc1cccc(Cl)c1Cl reads 4.64
# cell shape (Z-score), CC1=CC(C/C(C)=C/COc2ccc3ccc(=O)oc3c2)OC1=O (configuration not stated) reads -0.801

# Additional entries:

row,SMILES,cell shape (Z-score)
1,C/C(=C\Cc1c(O)ccc2cc(O)c(=O)oc12)COC1OC(CO)C(O)C(O)C1O (configuration not stated),0.97
2,CC1OC(OCC2OC(Oc3c(-c4ccc(O)cc4)oc4cc(O)cc(O)c4c3=O)C(O)C(O)C2O)C(O)C(O)C1O (configuration not stated),-1.2
3,CC(C)c1cc2c(cc1O)[C@@]1(C(=O)O)CCCC(C)(C)C1CC2 (some centres not stated),-0.191 ± 0.02
4,COc1ccc2c(=O)c(-c3ccc(OC)c(OC)c3)coc2c1,0.814 ± 1.3
5,CCC1(O)CC2CN(CCc3c([nH]c4ccccc34)C(C(=O)OC)(c3cc4c(cc3OC)N(C)C3C(O)(C(=O)OC)C(C(=O)OC)C5(CC)C=CCN6CCC43C65)C2)C1 (configuration not stated),8.52
6,C/C=C(/C)C(=O)O[C@H]1CC(C)(C)C[C@H]2C3=CCC4[C@@]5(C)CC[C@H](O[C@@H]6O[C@H](C(=O)O)[C@@H](O[C@@H]7O[C@H](CO)[C@H](O)[C@H](O)[C@H]7O[C@@H]7O[C@H](CO)[C@@H](O)[C@H](O)[C@H]7O)[C@H](O)[C@H]6O[C@@H]6O[C@@H](C)[C@H](O)[C@@H](O)[C@H]6O)C(C)(C)C5CC[C@@]4(C)[C@]3(C)[C@@H](OC(C)=O)[C@@H](O)[C@@]12COC(C)=O (some centres not stated),0.487
7,COc1c2c(cc3occ(-c4ccc5c(c4)OCO5)c(=O)c13)OC(C)(C)C=C2,1.71
8,CC(=O)Nc1ccc(C(=O)Nc2ccccc2N)cc1,-3.16 ± 2.7
9,NC(=O)c1ccccc1O,0.788
10,COc1cc(-c2ccccn2)nc(/C=N/O)c1[S+](C)[O-] (configuration not stated),0.66
11,COc1cc2c(cc1OC)C(c1ccc(N)cc1)=NNC(=O)C2,3.23
12,COc1c(O)cc2c(c1O)[C@H]1O[C@H](CO)[C@@H](O)[C@H](O)[C@@H]1OC2=O,2.18
13,Cc1ccc(NC(=O)c2ccc(CN3CCN(C)CC3)cc2)cc1Nc1nc(-c2cccnc2)cs1,4.44
14,CC(C)C[C@H](NC(=O)[C@H](Cc1ccccc1)NC(=O)c1cnccn1)B(O)O,4.79 and 4.86
15,CN(C)CCCNc1nc(CN2CCN(C(c3ccc(Cl)cc3)c3ccc(Cl)cc3)CC2)nc2ccccc12,-1.53
16,C[C@H]1[C@H](NC(=O)/C(=N/OC(C)(C)C(=O)O)c2csc(N)n2)C(=O)N1S(=O)(=O)O,7.08
17,NC(=O)c1ccc(-c2nc(-c3ccc4c(c3)OCCO4)c(-c3ccccn3)[nH]2)cc1,4.12
18,CN1c2ccccc2C(=O)N2CCc3c([nH]c4ccccc34)C21 (configuration not stated),-3.89
19,NS(=O)(=O)c1ccc(N/C=C2\C(=O)Nc3ccccc32)cc1,-0.305
20,C[C@@H]1[C@H]2[C@H](OC3O[C@H](CO)[C@@H](O)[C@H](O)[C@H]3O)OC=C(C(=O)O)[C@H]2C[C@@H]1O (some centres not stated),1.67
21,CC(C)/N=c1\cc2n(-c3ccc(Cl)cc3)c3ccccc3nc-2cc1Nc1ccc(Cl)cc1,2.34
22,COC(=O)C[C@H]1C(C)(C)[C@H](OC(C)=O)[C@]2(O)CC3=C4CC(=O)O[C@@H](c5ccoc5)[C@]4(C)CCC3[C@@]1(C)C2=O (some centres not stated),-0.876
23,CC(=O)O[C@@H]1CC2C(C)(C)C(=O)C=C[C@]2(C)C2CC[C@@]3(C)[C@H](c4ccoc4)OC(=O)[C@H]4O[C@]43[C@@]21C (some centres not stated),-4.89
24,CC(=O)[C@@]12O[C@](C)(c3ccccc3)O[C@@H]1CC1C3CCC4=CC(=O)CC[C@]4(C)C3CC[C@@]12C (some centres not stated),0.632
25,COC(=O)C[C@H]1C(C)(C)[C@@H](OC(C)=O)[C@@H]2CC3=C4CC(=O)O[C@@H](c5ccoc5)[C@]4(C)CCC3[C@@]1(C)C2=O (some centres not stated),2.68
26,CC(=O)O[C@H]1C(=O)[C@@]2(C)[C@H]([C@H](OC(=O)c3ccccc3)[C@]3(O)C[C@H](OC(=O)[C@H](O)[C@@H](NC(=O)c4ccccc4)c4ccccc4)C(C)=C1C3(C)C)[C@]1(OC(C)=O)CO[C@@H]1C[C@@H]2O,-5.5
